pKi: −log10 of the molar value. For part of these data: At least one structure is not confirmed: it was looked up by name or label, or the drawing left a doubt. Some results were stated once for a whole list of compounds, not compound by compound.
Assays:
[1] = molecular target: PpLYR3 (Prunus persica, UniProt A0A251NBL6); assay: Equilibrium, saturation and competition binding on PpLYR3 expressed in N. benthamiana leaves
Procedure: In non-legumes, PpLYR3, SILYR3 and AtLysM-RLK4 genes have been cloned, the corresponding proteins were expressed in N. benthamiana leaves, and their ability to bind to LCOs was determined by binding experiments at equilibrium, as described above for legumes LYR3 proteins.
The interaction of PpLYR3 with the Nod LCO-IV (^35S, C16:2Δ2, 9) factor has been characterized in more detail by means of saturation and competition experiments. The results obtained are illustrated in FIG. 9. […] Similarly, PpLYR3 specifically recognizes the LCOs as interaction with COs (CO-IV and CO-VIII) is of low affinity (Ki>5 μM).

Amino acid sequences for entries named in this document (tags omitted).
UniProt A0A251NBL6, entry or part of it: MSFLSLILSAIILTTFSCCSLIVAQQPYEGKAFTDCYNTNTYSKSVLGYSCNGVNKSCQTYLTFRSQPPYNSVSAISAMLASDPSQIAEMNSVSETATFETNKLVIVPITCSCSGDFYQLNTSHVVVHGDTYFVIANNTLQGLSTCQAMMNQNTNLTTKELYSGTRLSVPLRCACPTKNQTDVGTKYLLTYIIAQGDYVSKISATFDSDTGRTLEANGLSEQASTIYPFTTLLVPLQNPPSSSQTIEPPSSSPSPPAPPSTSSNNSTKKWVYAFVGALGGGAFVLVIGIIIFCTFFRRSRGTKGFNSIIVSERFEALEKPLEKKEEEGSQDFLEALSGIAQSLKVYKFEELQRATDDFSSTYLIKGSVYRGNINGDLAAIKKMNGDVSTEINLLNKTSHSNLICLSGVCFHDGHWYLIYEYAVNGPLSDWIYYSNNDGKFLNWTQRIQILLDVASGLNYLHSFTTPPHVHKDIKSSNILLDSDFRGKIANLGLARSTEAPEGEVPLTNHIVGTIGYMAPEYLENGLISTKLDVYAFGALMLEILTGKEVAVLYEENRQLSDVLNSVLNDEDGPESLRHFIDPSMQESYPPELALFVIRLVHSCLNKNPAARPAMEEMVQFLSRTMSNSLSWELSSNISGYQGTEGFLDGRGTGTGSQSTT
UniProt A5YJW2, entry or part of it: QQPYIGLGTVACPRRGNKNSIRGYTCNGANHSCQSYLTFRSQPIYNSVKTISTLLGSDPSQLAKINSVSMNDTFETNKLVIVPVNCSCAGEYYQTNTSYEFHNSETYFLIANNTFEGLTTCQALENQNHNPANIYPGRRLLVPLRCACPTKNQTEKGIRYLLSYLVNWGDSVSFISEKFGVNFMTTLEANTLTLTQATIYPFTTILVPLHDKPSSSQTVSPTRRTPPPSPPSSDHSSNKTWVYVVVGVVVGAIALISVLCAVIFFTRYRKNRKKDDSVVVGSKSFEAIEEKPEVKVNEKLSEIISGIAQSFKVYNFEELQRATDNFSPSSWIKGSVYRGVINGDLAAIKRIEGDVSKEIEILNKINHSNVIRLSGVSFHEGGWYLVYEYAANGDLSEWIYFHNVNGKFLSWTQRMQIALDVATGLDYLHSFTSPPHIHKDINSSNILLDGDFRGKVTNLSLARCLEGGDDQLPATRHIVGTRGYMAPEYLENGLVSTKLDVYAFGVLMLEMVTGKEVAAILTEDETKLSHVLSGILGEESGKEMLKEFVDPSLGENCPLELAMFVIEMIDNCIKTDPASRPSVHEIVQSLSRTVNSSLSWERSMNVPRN
UniProt I1LHL9, entry or part of it: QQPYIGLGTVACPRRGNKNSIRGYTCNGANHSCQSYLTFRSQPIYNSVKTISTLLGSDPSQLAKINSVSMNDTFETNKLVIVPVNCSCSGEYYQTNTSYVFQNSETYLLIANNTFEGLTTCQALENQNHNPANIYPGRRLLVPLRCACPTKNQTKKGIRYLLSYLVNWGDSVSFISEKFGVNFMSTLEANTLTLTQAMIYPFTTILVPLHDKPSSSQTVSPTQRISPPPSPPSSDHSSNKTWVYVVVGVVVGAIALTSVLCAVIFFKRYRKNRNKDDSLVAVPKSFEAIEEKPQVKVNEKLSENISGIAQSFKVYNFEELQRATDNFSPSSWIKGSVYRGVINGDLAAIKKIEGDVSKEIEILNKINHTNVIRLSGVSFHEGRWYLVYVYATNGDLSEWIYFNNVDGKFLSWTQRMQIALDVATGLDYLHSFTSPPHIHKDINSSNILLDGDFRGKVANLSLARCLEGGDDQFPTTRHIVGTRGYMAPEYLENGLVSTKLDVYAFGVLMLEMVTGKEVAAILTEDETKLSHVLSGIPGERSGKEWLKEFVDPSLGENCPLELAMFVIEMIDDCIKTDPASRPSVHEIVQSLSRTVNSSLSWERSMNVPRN
UniProt V7CFC1, entry or part of it: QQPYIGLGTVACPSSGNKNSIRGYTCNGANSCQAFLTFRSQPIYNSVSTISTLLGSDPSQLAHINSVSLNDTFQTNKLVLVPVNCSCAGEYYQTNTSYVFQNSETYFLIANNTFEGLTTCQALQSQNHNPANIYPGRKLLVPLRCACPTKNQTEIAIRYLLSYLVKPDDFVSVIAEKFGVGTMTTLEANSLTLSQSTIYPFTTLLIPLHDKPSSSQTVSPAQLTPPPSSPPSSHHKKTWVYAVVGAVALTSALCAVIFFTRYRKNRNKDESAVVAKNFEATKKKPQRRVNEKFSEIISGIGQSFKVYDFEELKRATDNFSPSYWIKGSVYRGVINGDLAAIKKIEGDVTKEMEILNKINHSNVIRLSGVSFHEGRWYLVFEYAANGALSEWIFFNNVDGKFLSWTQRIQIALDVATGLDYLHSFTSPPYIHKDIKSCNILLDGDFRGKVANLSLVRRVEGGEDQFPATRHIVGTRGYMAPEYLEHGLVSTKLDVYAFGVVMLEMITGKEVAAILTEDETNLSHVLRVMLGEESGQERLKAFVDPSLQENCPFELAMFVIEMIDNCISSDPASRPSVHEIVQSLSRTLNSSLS
UniProt D3KTZ9, entry or part of it: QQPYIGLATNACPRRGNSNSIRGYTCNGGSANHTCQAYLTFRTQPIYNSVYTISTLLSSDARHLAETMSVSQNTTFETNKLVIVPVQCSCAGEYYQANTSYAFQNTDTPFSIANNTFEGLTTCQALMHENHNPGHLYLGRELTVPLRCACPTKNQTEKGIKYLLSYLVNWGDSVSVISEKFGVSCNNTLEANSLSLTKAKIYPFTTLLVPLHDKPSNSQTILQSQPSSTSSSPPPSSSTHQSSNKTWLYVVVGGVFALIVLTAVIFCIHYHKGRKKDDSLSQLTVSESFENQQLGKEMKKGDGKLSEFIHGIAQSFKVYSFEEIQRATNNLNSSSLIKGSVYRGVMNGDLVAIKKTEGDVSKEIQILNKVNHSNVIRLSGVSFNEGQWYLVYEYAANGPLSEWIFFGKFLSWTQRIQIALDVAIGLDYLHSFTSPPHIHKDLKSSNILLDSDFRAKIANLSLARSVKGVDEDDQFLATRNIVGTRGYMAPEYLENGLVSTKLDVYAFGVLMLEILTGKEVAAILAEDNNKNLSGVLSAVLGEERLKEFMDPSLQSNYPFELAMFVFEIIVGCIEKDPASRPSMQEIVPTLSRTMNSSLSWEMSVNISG
UniProt A0A9D5BD18, entry or part of it: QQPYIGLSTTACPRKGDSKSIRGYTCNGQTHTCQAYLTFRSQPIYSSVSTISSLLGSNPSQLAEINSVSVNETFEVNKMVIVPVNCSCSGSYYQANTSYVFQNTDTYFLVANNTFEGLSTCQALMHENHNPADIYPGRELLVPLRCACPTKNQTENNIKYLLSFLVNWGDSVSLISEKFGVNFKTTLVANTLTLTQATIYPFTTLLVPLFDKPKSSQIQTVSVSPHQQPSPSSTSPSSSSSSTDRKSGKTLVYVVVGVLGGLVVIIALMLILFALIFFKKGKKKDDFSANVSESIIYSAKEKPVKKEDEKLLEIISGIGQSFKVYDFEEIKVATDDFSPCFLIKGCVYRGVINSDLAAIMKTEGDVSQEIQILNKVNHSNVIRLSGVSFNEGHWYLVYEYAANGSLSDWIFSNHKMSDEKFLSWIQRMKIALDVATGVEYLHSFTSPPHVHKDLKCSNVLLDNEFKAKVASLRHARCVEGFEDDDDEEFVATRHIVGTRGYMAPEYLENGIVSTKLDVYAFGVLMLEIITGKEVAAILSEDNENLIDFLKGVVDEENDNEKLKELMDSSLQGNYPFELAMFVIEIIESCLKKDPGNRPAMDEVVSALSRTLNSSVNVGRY

[2] = molecular target: GmLYR3-1 (Glycine max, UniProt A5YJW2); assay: Equilibrium, saturation and competitive binding on MtLYR3 ortholog expressed in N. benthamiana leaves; conditions: read-out: Affinity (Ki)
Source text: (§1) In legumes, MtLYR3 orthologs have been identified in P. sativum, P. vulgaris and L. japonicus. In G. max orthologs exist in duplicate due to a duplication of the genome. The corresponding genes have been cloned and sequenced. A few differences in sequence compared with sequences in the databases were found which could be explained by the use of different varieties of plants or by sequencing errors in databases. The cloned genes were introduced into binary vectors, in C-terminal fusion with the fluorescent protein YFP, and introduced into Nicotiana benthamiana leaves using agroinfiltration by Agrobacterium tumefaciens, as described above in Example 3. The membrane fractions were isolated, their protein content was analyzed by electrophoresis under denaturing conditions, followed by immunodetection using anti-GFP antibody as described in Example 3, and their ability to interact with LCOs was determined by equilibrium binding, as described in Example 1, in the presence of 1 nM LCO-IV (S^35, C16:2Δ2, 9). The value of specific binding is determined by the value of difference between the total binding and the nonspecific binding obtained for incubation in the presence of an excess (2 μM) of unlabeled ligand. For comparison, the ability to interact of LjNFR5 and LjNFR1 receptors, identified in L. japonicus to play a role in nodulation by a genetic approach (MADSEN et al, Nature, 425, 637-40, 2003. RADUTOIU et al., Nature, 425, 585-92, 2003a) and respective orthologs of LYK3 and NFP in M. truncatula was determined under the same conditions.
(§2) To further characterize the binding properties of MtLYR3 orthologs to LCOs, saturation and competitive binding experiments in the presence of different COs or LCOs were performed.

[3] = molecular target: GmLYR3-11 (Glycine max, UniProt I1LHL9); assay: as above; conditions: read-out: Affinity (Ki)
Source text: as §1, §2

[4] = molecular target: PvLYR3 (Phaseolus vulgaris, UniProt V7CFC1); assay: as above; conditions: read-out: Affinity (Ki)
Source text: as §1, §2

[5] = molecular target: LjLYS12 (Lotus japonicus, UniProt D3KTZ9); assay: as above; conditions: read-out: Affinity (Ki)
Source text: as §1, §2

[6] = molecular target: PsLYR3 (Lathyrus oleraceus, UniProt A0A9D5BD18); assay: as above; parameters: species or system Pisum sativum; conditions: read-out: Affinity (Ki)
Source text: as §1, with “For comparison, the ability to interact of LjNFR5 and LjNFR1 receptors, identified in L. japonicus to play a role in nodulation by a genetic approach (MADSEN et al, Nature, 425, 637-40, 2003. RADUTOIU et al., Nature, 425, 585-92, 2003a) and respective orthologs of LYK3 and NFP in M. truncatula was determined under the same conditions.” left out

| SMILES | pKi [1] | pKi [2] | pKi [3] | pKi [4] | pKi [5] | pKi [6] |
| --- | --- | --- | --- | --- | --- | --- |
| CC(=O)N[C@H]1[C@H](O[C@H]2[C@H](O)[C@@H](NC(C)=O)[C@H](O[C@H]3[C@H](O)[C@@H](NC(C)=O)[C@H](O[C@H]4[C@H](O)[C@@H](NC(C)=O)C(O)O[C@@H]4CO)O[C@@H]3CO)O[C@@H]2CO)O[C@H](CO)[C@@H](O[C@@H]2O[C@H](CO)[C@@H](O[C@@H]3O[C@H](CO)[C@@H](O[C@@H]4O[C@H](CO)[C@@H](O[C@@H]5O[C@H](CO)[C@@H](O)[C@H](O)[C@H]5NC(C)=O)[C@H](O)[C@H]4NC(C)=O)[C@H](O)[C@H]3NC(C)=O)[C@H](O)[C@H]2NC(C)=O)[C@@H]1O (stereo partly drawn) [CO-VIII] | < 5.30 | – | – | – | – | – |
| CCCCCC/C=C\CCCCCCCCCC(=O)N[C@H]1[C@H](O[C@H]2[C@H](O)[C@@H](NC(C)=O)[C@H](O[C@H]3[C@H](O)[C@@H](NC(C)=O)[C@H](O[C@H]4[C@H](O)[C@@H](NC(C)=O)[C@H](O[C@H]5[C@H](O)[C@@H](NC(C)=O)C(O)O[C@@H]5COS(=O)(=O)O)O[C@@H]4CO)O[C@@H]3CO)O[C@@H]2CO)O[C@H](CO)[C@@H](O)[C@@H]1O (stereo partly drawn) [LCO-V (S,C18:1Δ11)] | – | 8.30 | 7.74 | 8.05 | 8.10 | 7.96 |

Reference: US20150232876A1, “Use of a Receptor Kinase Having LysM Motifs in Order to Improve the Response of Plants to Lipochitooligosaccharides” (INSTITUT NATIONAL DE LA RECHERCHE AGRONOMIQUE, priority 2012, published 2015)
